Measurements: PMC11573612 (Molecular Therapy, 2024)
No constants are given. Whether binding was seen depends on the method and setting. Binding seen in cells or lysates may run through a third protein. Some results given as binding are weak or reduced against the parent protein; the word gives no strength.

The chains behind the UniProt entries cited, without tags or fusion partners. Residues count along the entry.
UniProt Q9NZQ7, residues 19-290: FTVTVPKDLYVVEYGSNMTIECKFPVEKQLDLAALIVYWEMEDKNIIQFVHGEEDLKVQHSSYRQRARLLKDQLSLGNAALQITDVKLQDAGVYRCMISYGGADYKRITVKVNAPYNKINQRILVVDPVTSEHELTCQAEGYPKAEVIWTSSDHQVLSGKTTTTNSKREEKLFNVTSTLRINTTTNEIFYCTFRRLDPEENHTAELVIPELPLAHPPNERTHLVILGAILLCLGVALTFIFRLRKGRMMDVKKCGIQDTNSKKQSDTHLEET

Molecular target: human PD-L1, overexpressed in cells for co-immunoprecipitation (human) (UniProt Q9NZQ7)
Assay: co-IP; co-IP with mouse Pd-l1, deletion mutants and PD-L2 (Figure 4E-H); cells, tags and antibodies not stated

- binding: binds
B1: VSTM2A IgV domain (Δ144-240) (domain or fragment, UniProt Q8TAG5 25-143)
chain: SQAKFTEFPRNVTATEGQNVEMSCAFQSGSASVYLEIQWWFLRGPEDLDPGAEGAGAQVELLPDRDPDSDGTKISTVKVQGNDISHKLQISKVRKKDEGLYECRVTDANYGELQEHKAQ
